According to the supplement of paper PMC7661543:
The effect of the compound repeats well; differences between the knockouts mostly do not.

Test system: BT-20
Assay: relative cell number vs DMSO control (72 h) (% of DMSO); higher = less growth inhibition (more cells)
Method: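 QMAP-Seq: a pool of 5 breast cancer cell lines (ZR-75-1, SKBR3, HCC-38, MDA-MB-231, BT-20), each carrying 12 doxycycline-inducible Cas9 sgRNA perturbations (11 knockouts plus non-targeting sgNT), was treated with compounds for 72 h at four 10-fold doses (10 nM-10 uM or 1 nM-1 uM range). Barcodes were amplified and sequenced, and cell number was interpolated from 293T spike-in standard curves. The result is expressed as % of the median of DMSO wells. Two biological replicates.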

CC(C)C[C@H](NC(=O)[C@H](Cc1ccccc1)NC(=O)c1cnccn1)B(O)O [Bortezomib]
Conditions	relative cell number
sgRNA knockout: sgATF3, 1 nM	96.8
sgRNA knockout: sgATF3, 10 nM	83.8
sgRNA knockout: sgATF3, 100 nM	23
sgRNA knockout: sgATF3, 1000 nM	17.1
sgRNA knockout: sgATF4, 1 nM	85.8
sgRNA knockout: sgATF4, 10 nM	88.7
sgRNA knockout: sgATF4, 100 nM	20.3
sgRNA knockout: sgATF4, 1000 nM	22.3
sgRNA knockout: sgATF6, 1 nM	98.8
sgRNA knockout: sgATF6, 10 nM	87.1
sgRNA knockout: sgATF6, 100 nM	23.4
sgRNA knockout: sgATF6, 1000 nM	20.2
sgRNA knockout: sgATG7, 1 nM	88.23
sgRNA knockout: sgATG7, 10 nM	83.4
sgRNA knockout: sgATG7, 100 nM	18.5
sgRNA knockout: sgATG7, 1000 nM	24.2
sgRNA knockout: sgERN1, 1 nM	96.6
sgRNA knockout: sgERN1, 10 nM	88.3
sgRNA knockout: sgERN1, 100 nM	20.4
sgRNA knockout: sgERN1, 1000 nM	19
sgRNA knockout: sgHSF1, 1 nM	84.4
sgRNA knockout: sgHSF1, 10 nM	97.2
sgRNA knockout: sgHSF1, 100 nM	19.9
sgRNA knockout: sgHSF1, 1000 nM	18.7
sgRNA knockout: sgHSF2, 1 nM	98.1
sgRNA knockout: sgHSF2, 10 nM	75.2
sgRNA knockout: sgHSF2, 100 nM	21.2
sgRNA knockout: sgHSF2, 1000 nM	24.1
sgRNA knockout: sgKEAP1, 1 nM	92.6
sgRNA knockout: sgKEAP1, 10 nM	89.6
sgRNA knockout: sgKEAP1, 100 nM	22.3
sgRNA knockout: sgKEAP1, 1000 nM	20.4
sgRNA knockout: sgNFE2L2, 1 nM	77.1
sgRNA knockout: sgNFE2L2, 10 nM	81.4
sgRNA knockout: sgNFE2L2, 100 nM	20.3
sgRNA knockout: sgNFE2L2, 1000 nM	16.8
sgRNA knockout: sgSLC35F2, 1 nM	93.8
sgRNA knockout: sgSLC35F2, 10 nM	79
sgRNA knockout: sgSLC35F2, 100 nM	18
sgRNA knockout: sgSLC35F2, 1000 nM	22.2
sgRNA knockout: sgXBP1, 1 nM	93.4
sgRNA knockout: sgXBP1, 10 nM	91.7
sgRNA knockout: sgXBP1, 100 nM	19
sgRNA knockout: sgXBP1, 1000 nM	21.8

COc1cc(C(=O)N2CCC(N3CCN(C)CC3)CC2)ccc1Nc1ncc2c(n1)N(C)c1ccccc1C(=O)N2C [LRRK2IN1]
Conditions	relative cell number
sgRNA knockout: sgATF3, 10 nM	110
sgRNA knockout: sgATF3, 100 nM	90.2
sgRNA knockout: sgATF3, 1000 nM	86.5
sgRNA knockout: sgATF3, 10000 nM	41.8
sgRNA knockout: sgATF4, 10 nM	116
sgRNA knockout: sgATF4, 100 nM	101
sgRNA knockout: sgATF4, 1000 nM	82.5
sgRNA knockout: sgATF4, 10000 nM	42
sgRNA knockout: sgATF6, 10 nM	115
sgRNA knockout: sgATF6, 100 nM	94.1
sgRNA knockout: sgATF6, 1000 nM	77.3
sgRNA knockout: sgATF6, 10000 nM	37.3
sgRNA knockout: sgATG7, 10 nM	116
sgRNA knockout: sgATG7, 100 nM	89.7
sgRNA knockout: sgATG7, 1000 nM	96.2
sgRNA knockout: sgATG7, 10000 nM	51.5
sgRNA knockout: sgERN1, 10 nM	125
sgRNA knockout: sgERN1, 100 nM	97.7
sgRNA knockout: sgERN1, 1000 nM	78.9
sgRNA knockout: sgERN1, 10000 nM	49.1
sgRNA knockout: sgHSF1, 10 nM	109
sgRNA knockout: sgHSF1, 100 nM	94.4
sgRNA knockout: sgHSF1, 1000 nM	81.8
sgRNA knockout: sgHSF1, 10000 nM	53.6
sgRNA knockout: sgHSF2, 10 nM	124
sgRNA knockout: sgHSF2, 100 nM	103
sgRNA knockout: sgHSF2, 1000 nM	85.4
sgRNA knockout: sgHSF2, 10000 nM	42.1
sgRNA knockout: sgKEAP1, 10 nM	105.27
sgRNA knockout: sgKEAP1, 100 nM	93.5
sgRNA knockout: sgKEAP1, 1000 nM	77.23
sgRNA knockout: sgKEAP1, 10000 nM	48.7
sgRNA knockout: sgNFE2L2, 10 nM	119
sgRNA knockout: sgNFE2L2, 100 nM	83.8
sgRNA knockout: sgNFE2L2, 1000 nM	92.7
sgRNA knockout: sgNFE2L2, 10000 nM	48.6
sgRNA knockout: sgSLC35F2, 10 nM	108
sgRNA knockout: sgSLC35F2, 100 nM	95.8
sgRNA knockout: sgSLC35F2, 1000 nM	72.2
sgRNA knockout: sgSLC35F2, 10000 nM	46.8
sgRNA knockout: sgXBP1, 10 nM	121
sgRNA knockout: sgXBP1, 100 nM	86.2
sgRNA knockout: sgXBP1, 1000 nM	79.845
sgRNA knockout: sgXBP1, 10000 nM	47.919
